According to US20140256613A1:
No constants are given. Whether binding was seen depends on the method and setting. Some results given as binding are weak or reduced against the parent protein; the word gives no strength.

Chains of the proteins cited; added tags and fusions are not shown. Lines headed by an entry give the natural chain unless they say otherwise; changes in a name come on top.
UniProt Q8IWL2: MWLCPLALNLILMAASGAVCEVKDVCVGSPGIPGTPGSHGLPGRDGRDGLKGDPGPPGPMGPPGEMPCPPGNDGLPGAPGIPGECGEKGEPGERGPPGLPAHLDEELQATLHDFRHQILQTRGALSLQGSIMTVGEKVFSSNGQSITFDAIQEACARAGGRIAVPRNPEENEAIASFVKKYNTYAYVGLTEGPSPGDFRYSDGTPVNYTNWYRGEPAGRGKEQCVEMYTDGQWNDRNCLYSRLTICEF

Molecular target: full-length human TLR4 expressed as fusion protein with GAL4 (pTLR4) (human)
Assay: mammalian two-hybrid assay and confocal co-localization in co-transfected HEK293 cells

## full-length human SPA expressed as fusion protein with VP16 (pSPA) (from UniProt Q8IWL2 21-248)
  binding: binds
